{"sequences": {"note": "Chains of the proteins cited; added tags and fusions are not shown.", "UniProt Q13616": "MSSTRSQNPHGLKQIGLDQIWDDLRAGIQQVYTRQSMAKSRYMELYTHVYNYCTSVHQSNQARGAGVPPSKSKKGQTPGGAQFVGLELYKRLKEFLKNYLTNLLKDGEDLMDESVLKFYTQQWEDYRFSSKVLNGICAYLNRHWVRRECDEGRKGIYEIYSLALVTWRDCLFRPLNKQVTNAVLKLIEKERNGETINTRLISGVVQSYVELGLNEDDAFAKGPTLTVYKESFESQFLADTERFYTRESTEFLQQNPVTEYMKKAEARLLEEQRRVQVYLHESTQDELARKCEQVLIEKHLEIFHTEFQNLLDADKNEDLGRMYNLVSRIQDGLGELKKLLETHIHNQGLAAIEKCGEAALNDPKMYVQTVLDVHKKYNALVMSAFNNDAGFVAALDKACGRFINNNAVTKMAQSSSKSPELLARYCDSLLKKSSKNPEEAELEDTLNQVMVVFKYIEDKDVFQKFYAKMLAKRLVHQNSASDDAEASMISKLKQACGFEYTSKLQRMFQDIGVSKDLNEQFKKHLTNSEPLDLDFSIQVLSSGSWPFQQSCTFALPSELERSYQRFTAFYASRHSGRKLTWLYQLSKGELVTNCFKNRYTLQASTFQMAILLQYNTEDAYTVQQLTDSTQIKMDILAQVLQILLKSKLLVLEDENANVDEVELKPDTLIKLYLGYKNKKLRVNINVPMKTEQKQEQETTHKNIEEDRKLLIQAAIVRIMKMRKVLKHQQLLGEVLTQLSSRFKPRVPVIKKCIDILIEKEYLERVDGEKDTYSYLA"}, "source": "paper PMC8307194", "binders": {"B1": {"name": "Flag-tagged Dvl2 WT (mouse dishevelled 2) (protein, UniProt Q60838 1-736)", "chain": "MAGSSAGGGGVGETKVIYHLDEEETPYLVKIPVPAERITLGDFKSVLQRPAGAKYFFKSMDQDFGVVKEEISDDNARLPCFNGRVVSWLVSSDTPQPEVAPPAHESRTELVPPPPPLPPLPPERTSGIGDSRPPSFHPNVSSSHENLEPETETESVVSLRRDRPRRRDSSEHGAGGHRPGGPSRLERHLAGYESSSTLMTSELESTSLGDSDEDDTMSRFSSSTEQSSASRLLKRHRRRRKQRPPRMERTSSFSSVTDSTMSLNIITVTLNMEKYNFLGISIVGQSNERGDGGIYIGSIMKGGAVAADGRIEPGDMLLQVNDMNFENMSNDDAVRVLRDIVHKPGPIVLTVAKCWDPSPQAYFTLPRNEPIQPIDPAAWVSHSAALTGAFPAYPGSSSMSTITSGSSLPDGCEGRGLSVHMDMASVTKAMAAPESGLEVRDRMWLKITIPNAFLGSDVVDWLYHHVEGFPERREARKYASGLLKAGLIRHTVNKITFSEQCYYVFGDLSGGCESYLVNLSLNDNDGSSGASDQDTLAPLPGATPWPLLPTFSYQYPAPHPYSPQPPPYHELSSYTYGGGSASSQHSEGSRSSGSTRSDGGAGRTGRPEERAPESKSGSGSESELSSRGGSLRRGGEPGGTGDGGPPPSRGSTGAPPNLRALPGLHPYGAPSGMALPYNPMMVVMMPPPPPPVSTAVQPPGAPPVRDLGSVPPELTASRQSFHMAMGNPSEFFVDVM"}}, "biological_target": "GST-tagged CUL1 WT (human) (UniProt Q13616)", "assay": "pull-down; bead-bound GST fusion purified from bacteria (BL21) incubated with HEK293T lysates expressing the Flag-tagged partner for 5 h; washed four times with TBSN buffer (20 mM Tris-Cl pH 8.0, 150 mM NaCl, 0.5% NP-40); anti-Flag immunoblot; only the target purified", "note": "Results are given in words; binding and its absence hold for the method and conditions named. Binding seen in cells or lysates may run through a third protein. Some entries that bind do so weakly or less than the wild type. Sequences can lack the tags named with a protein."}
{"binder": "B1", "values": [{"measurement": "binding", "result": "binds"}]}
